# Values of other authors in PMC5840332, “Disease-associated missense mutations in GluN2B subunit alter NMDA receptor ligand binding and ion channel properties” (Nature Communications, 2018).
# System: NMDAR channel
# Set-up: method as in earlier work
# Conditions: ref 28 Blanpied et al., cited from earlier work
compound,measurement,setting,value
"CC12CC3CC(C)(C1)CC(N)(C3)C2 [Memantine, memantine]",V0 of primary channel site for memantine,primary channel site,31.5 mV
same,V0 of second site for memantine,second site,67.2 mV
